Paper PMC12548456

Protein sequences, listed by entry. Tags and fused reporters are not part of them. Lines headed by an entry give the natural chain unless they say otherwise; changes in a name come on top.
UniProt A0A0U1RR32: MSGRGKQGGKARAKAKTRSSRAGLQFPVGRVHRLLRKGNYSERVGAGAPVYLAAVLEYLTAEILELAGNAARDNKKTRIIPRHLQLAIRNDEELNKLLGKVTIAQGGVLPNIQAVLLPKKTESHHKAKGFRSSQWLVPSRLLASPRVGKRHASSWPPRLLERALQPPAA

Biological target: T1, GFP-U65 (HHV-6B tegument protein U65, GFP-tagged) (HHV-6B) (UniProt Q9QJ19)
T1 sequence: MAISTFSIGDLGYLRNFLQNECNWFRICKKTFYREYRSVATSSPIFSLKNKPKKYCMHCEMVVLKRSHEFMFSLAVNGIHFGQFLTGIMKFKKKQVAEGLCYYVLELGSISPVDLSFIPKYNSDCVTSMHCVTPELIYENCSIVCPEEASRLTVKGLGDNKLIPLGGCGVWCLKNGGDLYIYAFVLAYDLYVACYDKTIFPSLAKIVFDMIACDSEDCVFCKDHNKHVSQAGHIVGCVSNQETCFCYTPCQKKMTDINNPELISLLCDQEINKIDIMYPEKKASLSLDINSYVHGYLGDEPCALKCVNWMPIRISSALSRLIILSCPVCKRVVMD
Experiment: affinity purification with mass spectrometry; GFP or GFP-U65 expressed in 293T cells; lysate (10 mM Tris-HCl pH 7.5, 150 mM NaCl, 1% NP-40) incubated with GST-tagged anti-GFP nanobody at 4°C overnight, washed 10 times; LC-MS of the co-precipitated proteins

Histone H2A (hCG_2039566), endogenous (from UniProt A0A0U1RR32 1-169)
binding: binds

No constants are given. Whether binding was seen depends on the method and setting. Binding seen in cells or lysates may run through a third protein. These calls come from enrichment with a bait or labelling near it, and not all partners need be listed. Sequences can lack the tags named with a protein.
